Literature values in patent publication US20040151785A1, “Method for treating insulin resistance through hepatic nitric oxide” (DiaMedica Inc., priority 1998, published 2004).
Read-outs that look alike come from different tables or passages of the source. At least one structure is not confirmed: it was looked up by name or label, or the drawing left a doubt.

Tested on: liver
Details: cited from earlier work

## CC(=O)OCC[N+](C)(C)C [acetylcholine]
Acetylcholine infused into the portal vein, 2.5 μg/kg/min
  reversal of insulin resistance induced by surgical denervation: complete reversal
Same dose of acetylcholine intravenously
  reversal of insulin resistance induced by surgical denervation: no reversal
